Several values for one entry are separate records, joined by “and”; a condition that tells them apart may be missing. Equal values may be shown once.
Tested on: sigma receptors
Assay: Saturation binding of pan-sigma ligand [³H] DTG to MDA-MB-468 cell membranes
Parameters: species or system human
Conditions: MDA-MB-468 membranes; listed as [³H] DTG
Description: Assays (total volume 100 μl) were performed at room temperature for 4 h with 1–300 nM [^3H] […] Assays were terminated by addition of ice-cold TBS and filtration through glass fibre filters (GF/C, Sigma-Aldrich, Poole, UK) using a cell harvester. Tubes and filter discs were washed with ice-cold TBS (2 x 3 ml) and the filter discs dried under vacuum. Scintillation counting was carried out in ProSafe FC+ cocktail after overnight incubation.

## Cc1ccccc1NC(=N)Nc1ccccc1C [DTG, 1,3-di-O-tolylguanidine]
  Bmax: 850 ± 200 fmol/mg protein and 850 fmol/mg protein
